The source of these data is paper PMC12547551, “Lanostane–Meroterpene Conjugates with Unusual Aryl Ether Linkage and a Lanostane Dimer from Artificially Cultivated Fruiting Bodies of Ganoderma cf. hochiminhense” (ACS Omega, 2025).

By IC50 is commonly meant the concentration that gives 50% inhibition. The low end stands for greater potency in that assay, the high end for weaker potency in that assay.

In the assay the test system is MCF-7 (breast cancer) cells. Description: Cytotoxicity against MCF-7 cells, resazurin fluorescent method. The class given is cell-based. Conditions: Homo sapiens, MCF7. On the technique in general: Alamar Blue is a resazurin reagent that responds to reducing activity.

`CC/C(=C(\c1ccccc1)c1ccc(OCCN(C)C)cc1)c1ccccc1` [tamoxifen, reference compound] came in with an IC50 of 36 µM.
